{"source": "PubChem BioAssay AID743454 (Peter MacCallum Cancer Centre, 2014)", "purpose": "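Genes whose loss kills vorinostat-resistant colon cancer cells under vorinostat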 (primary screen)", "cell system": "human HCT116-VR colon cancer cells, selected for vorinostat resistance", "reagents": "siRNA pool against human genes, 40 nM siRNA pool", "time to read-out": "vorinostat for 24 h, read-out about 72 h after transfection", "challenge": "vorinostat at 2.5 µM final", "measurement": "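Two measures, CellTiter-Fluor viability and luminescent caspase 3/7 activity, each as fold change against same-plate mock wells, mean of duplicates, then screen-wide robust z-score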", "scale": "viability robust z-score: higher = more viable cells than screen typical; caspase robust z-score: higher = more caspase 3/7 activity than screen typical", "call rule": "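a knock-down is a hit when classed RV1 or RV2 for lowered viability, or CA1 or CA2 for caspase activation; those lethal without drug were dropped; hits were retested singly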", "note": "Shown is an unselected part of about 18,000 deposited reagents. Over the whole deposit, 450 (2.5%) were called active. 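Single biological run; no consistent viability z cut-off exists, so the class columns, not z-scores, define the calls.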 Reagent sequences are not shown."}
{"gene symbol": "RABL3", "viability hit class": "no change", "caspase hit class": "no change", "viability robust z-score": 0.1, "caspase robust z-score": -0.4, "Outcome": "inactive"}
{"gene symbol": "ASPHD1", "viability hit class": "no change", "caspase hit class": "no change", "viability robust z-score": -0.2, "caspase robust z-score": -0.59, "Outcome": "inactive"}
{"gene symbol": "GRM8", "viability hit class": "no change", "caspase hit class": "no change", "viability robust z-score": 0.57, "caspase robust z-score": -0.5, "Outcome": "inactive"}
{"gene symbol": "TRPA1", "viability hit class": "no change", "caspase hit class": "no change", "viability robust z-score": -0.38, "caspase robust z-score": 2.74, "Outcome": "inactive"}
{"gene symbol": "TRIM35", "viability hit class": "no change", "caspase hit class": "no change", "viability robust z-score": -0.9, "caspase robust z-score": 0.54, "Outcome": "inactive"}
{"gene symbol": "GALNT15", "viability hit class": "no change", "caspase hit class": "no change", "viability robust z-score": -0.32, "caspase robust z-score": -1, "Outcome": "inactive"}
{"gene symbol": "DAAM2", "viability hit class": "no change", "caspase hit class": "no change", "viability robust z-score": -0.15, "caspase robust z-score": -0.36, "Outcome": "inactive"}
{"gene symbol": "SLC23A2", "viability hit class": "no change", "caspase hit class": "no change", "viability robust z-score": 1.62, "caspase robust z-score": 0.11, "Outcome": "inactive"}
{"gene symbol": "NUDCD2", "viability hit class": "no change", "caspase hit class": "no change", "viability robust z-score": 0.28, "caspase robust z-score": -0.52, "Outcome": "inactive"}
{"gene symbol": "SNRNP25", "viability hit class": "no change", "caspase hit class": "no change", "viability robust z-score": -1.47, "caspase robust z-score": -0.38, "Outcome": "inactive"}
{"gene symbol": "ATP8B3", "viability hit class": "no change", "caspase hit class": "no change", "viability robust z-score": -0.66, "caspase robust z-score": 1.34, "Outcome": "inactive"}
{"gene symbol": "NME6", "viability hit class": "no change", "caspase hit class": "no change", "viability robust z-score": -1.4, "caspase robust z-score": 1.76, "Outcome": "inactive"}
{"gene symbol": "BCL2L15", "viability hit class": "no change", "caspase hit class": "no change", "viability robust z-score": -0.52, "caspase robust z-score": -0.03, "Outcome": "inactive"}

An excerpt from above, limited to “viability robust z-score”.
ASPHD1: -0.2
GRM8: 0.57
TRPA1: -0.38
TRIM35: -0.9

Additional records follow.
{"gene symbol": "ABHD16A", "viability hit class": "no change", "caspase hit class": "no change", "viability robust z-score": 0.26, "caspase robust z-score": 0.56, "Outcome": "inactive"}
{"gene symbol": "FANCC", "viability hit class": "no change", "caspase hit class": "no change", "viability robust z-score": -0.28, "caspase robust z-score": -0.6, "Outcome": "inactive"}
{"gene symbol": "ARFGAP3", "viability hit class": "no change", "caspase hit class": "no change", "viability robust z-score": 0.41, "caspase robust z-score": 0.56, "Outcome": "inactive"}
{"gene symbol": "KLHDC7B", "viability hit class": "no change", "caspase hit class": "no change", "viability robust z-score": -0.9, "caspase robust z-score": 5.08, "Outcome": "inactive"}
{"gene symbol": "BYSL", "viability hit class": "no change", "caspase hit class": "no change", "viability robust z-score": -2.9, "caspase robust z-score": -0.6, "Outcome": "inactive"}
{"gene symbol": "POGLUT3", "viability hit class": "no change", "caspase hit class": "no change", "viability robust z-score": 1.41, "caspase robust z-score": -0.38, "Outcome": "inactive"}
{"gene symbol": "TMEM260", "viability hit class": "no change", "caspase hit class": "no change", "viability robust z-score": 1.52, "caspase robust z-score": -0.66, "Outcome": "inactive"}
{"gene symbol": "P2RY10", "viability hit class": "no change", "caspase hit class": "no change", "viability robust z-score": -0.24, "caspase robust z-score": -0.3, "Outcome": "inactive"}
{"gene symbol": "RPF2", "viability hit class": "no change", "caspase hit class": "no change", "viability robust z-score": -1.24, "caspase robust z-score": -0.23, "Outcome": "inactive"}
{"gene symbol": "LMNTD2", "viability hit class": "no change", "caspase hit class": "no change", "viability robust z-score": 0.18, "caspase robust z-score": 3.52, "Outcome": "inactive"}
{"gene symbol": "EPN3", "viability hit class": "no change", "caspase hit class": "no change", "viability robust z-score": 1.62, "caspase robust z-score": 0.73, "Outcome": "inactive"}
{"gene symbol": "STYXL2", "viability hit class": "no change", "caspase hit class": "no change", "viability robust z-score": 0.02, "caspase robust z-score": -1.16, "Outcome": "inactive"}
{"gene symbol": "UNK", "viability hit class": "no change", "caspase hit class": "no change", "viability robust z-score": 1.06, "caspase robust z-score": 0.8, "Outcome": "inactive"}
{"gene symbol": "ANGEL2", "viability hit class": "no change", "caspase hit class": "no change", "viability robust z-score": 0.29, "caspase robust z-score": 0.73, "Outcome": "inactive"}
